Results are given in words; binding and its absence hold for the method and conditions named. In cells and extracts the contact can be indirect. Some entries that bind do so weakly or less than the wild type.
Legend:
[1] = molecular target: Ebola virus nucleoprotein (NP) (Ebola virus (EBOV)) (UniProt P18272); assay: proximity ligation
[2] = molecular target: GFP10-VP40 (EBOV VP40 fused to the 10th beta-strand of GFP) (Ebola virus (EBOV)) (UniProt Q05128); assay: split reporter

By UniProt entry, the sequences of proteins in these tests, tags left out.
UniProt P18272: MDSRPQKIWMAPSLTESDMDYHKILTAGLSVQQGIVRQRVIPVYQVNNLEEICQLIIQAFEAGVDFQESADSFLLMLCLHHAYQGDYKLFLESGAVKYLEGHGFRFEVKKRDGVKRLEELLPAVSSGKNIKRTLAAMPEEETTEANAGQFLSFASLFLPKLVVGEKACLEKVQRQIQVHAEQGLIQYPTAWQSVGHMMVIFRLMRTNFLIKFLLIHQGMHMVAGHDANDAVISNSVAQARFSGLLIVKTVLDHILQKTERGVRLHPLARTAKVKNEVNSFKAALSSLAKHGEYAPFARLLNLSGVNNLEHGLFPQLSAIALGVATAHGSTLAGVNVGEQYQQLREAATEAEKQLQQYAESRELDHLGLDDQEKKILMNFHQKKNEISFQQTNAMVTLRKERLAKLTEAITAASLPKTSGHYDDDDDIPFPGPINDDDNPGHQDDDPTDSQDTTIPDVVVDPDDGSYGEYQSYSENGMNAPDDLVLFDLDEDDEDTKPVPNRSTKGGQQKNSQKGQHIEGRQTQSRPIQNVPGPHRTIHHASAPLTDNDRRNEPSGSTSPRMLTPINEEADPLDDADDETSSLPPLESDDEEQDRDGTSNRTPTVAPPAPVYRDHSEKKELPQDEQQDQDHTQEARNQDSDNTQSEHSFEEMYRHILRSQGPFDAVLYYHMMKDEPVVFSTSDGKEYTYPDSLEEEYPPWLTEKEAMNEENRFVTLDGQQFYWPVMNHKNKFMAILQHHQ
UniProt Q05128: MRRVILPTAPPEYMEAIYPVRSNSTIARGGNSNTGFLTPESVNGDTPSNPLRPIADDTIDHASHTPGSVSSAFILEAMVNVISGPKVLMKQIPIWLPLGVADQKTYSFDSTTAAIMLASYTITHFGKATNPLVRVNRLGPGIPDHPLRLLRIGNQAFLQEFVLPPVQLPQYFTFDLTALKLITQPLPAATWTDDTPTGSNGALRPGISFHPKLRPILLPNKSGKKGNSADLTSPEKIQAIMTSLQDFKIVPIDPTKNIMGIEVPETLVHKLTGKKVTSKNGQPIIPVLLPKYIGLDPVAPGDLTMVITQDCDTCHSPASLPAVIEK
UniProt Q05323: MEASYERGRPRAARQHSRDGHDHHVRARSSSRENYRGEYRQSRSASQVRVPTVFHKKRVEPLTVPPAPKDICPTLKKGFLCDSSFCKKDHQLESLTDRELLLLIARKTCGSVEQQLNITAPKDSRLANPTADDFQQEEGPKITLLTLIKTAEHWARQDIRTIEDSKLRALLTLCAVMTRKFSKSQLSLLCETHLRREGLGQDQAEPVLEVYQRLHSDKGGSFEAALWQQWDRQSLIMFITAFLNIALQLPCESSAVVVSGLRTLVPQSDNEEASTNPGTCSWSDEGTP
UniProt P11940: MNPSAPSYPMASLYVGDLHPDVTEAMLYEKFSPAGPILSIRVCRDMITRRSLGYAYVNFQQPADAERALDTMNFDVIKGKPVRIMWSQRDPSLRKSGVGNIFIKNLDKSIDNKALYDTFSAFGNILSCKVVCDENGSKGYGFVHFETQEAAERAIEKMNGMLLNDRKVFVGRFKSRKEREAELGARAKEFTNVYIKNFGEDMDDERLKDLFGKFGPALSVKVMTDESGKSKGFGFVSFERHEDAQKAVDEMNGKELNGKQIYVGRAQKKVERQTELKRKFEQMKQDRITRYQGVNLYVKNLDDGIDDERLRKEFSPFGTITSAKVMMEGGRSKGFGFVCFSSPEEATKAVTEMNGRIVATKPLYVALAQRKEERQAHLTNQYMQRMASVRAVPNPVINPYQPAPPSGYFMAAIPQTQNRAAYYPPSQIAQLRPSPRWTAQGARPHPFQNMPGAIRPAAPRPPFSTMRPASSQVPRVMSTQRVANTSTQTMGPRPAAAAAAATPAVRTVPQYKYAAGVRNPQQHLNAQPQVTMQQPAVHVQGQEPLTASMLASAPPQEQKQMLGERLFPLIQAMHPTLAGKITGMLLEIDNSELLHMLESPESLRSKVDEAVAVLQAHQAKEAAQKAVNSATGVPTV

Substance | binding [1] | binding [2]
Ebola virus VP30 (from UniProt Q05323 1-288) | binds | –
GFP11-PABPC1 (polyA binding protein PABPC1 tagged with GFP11) (from UniProt P11940 1-636) | – | no binding

— PMC9505868
